Measurements reported in PubChem BioAssay AID588590 (National Center for Advancing Translational Sciences (NCATS), 2011).
Out of some 390,000 compounds screened, about 4,000 (1%) were called active. The shares of active, inactive and inconclusive entries below differ from those in the screen. Calls come from the whole dose curve; as a rule, active = well fitted inhibition curve with a large enough effect; inconclusive = small, poorly fitted or top-dose-only effect, or another doubt; inactive = no such curve, though single readings can be large or run the other way. Where the call is inconclusive, the potency comes from a doubtful curve fit.

Protein sequences, listed by entry. Tags and fused reporters are not part of them. Lines headed by an entry give the natural chain unless they say otherwise; changes in a name come on top.
UniProt Q9UNA4: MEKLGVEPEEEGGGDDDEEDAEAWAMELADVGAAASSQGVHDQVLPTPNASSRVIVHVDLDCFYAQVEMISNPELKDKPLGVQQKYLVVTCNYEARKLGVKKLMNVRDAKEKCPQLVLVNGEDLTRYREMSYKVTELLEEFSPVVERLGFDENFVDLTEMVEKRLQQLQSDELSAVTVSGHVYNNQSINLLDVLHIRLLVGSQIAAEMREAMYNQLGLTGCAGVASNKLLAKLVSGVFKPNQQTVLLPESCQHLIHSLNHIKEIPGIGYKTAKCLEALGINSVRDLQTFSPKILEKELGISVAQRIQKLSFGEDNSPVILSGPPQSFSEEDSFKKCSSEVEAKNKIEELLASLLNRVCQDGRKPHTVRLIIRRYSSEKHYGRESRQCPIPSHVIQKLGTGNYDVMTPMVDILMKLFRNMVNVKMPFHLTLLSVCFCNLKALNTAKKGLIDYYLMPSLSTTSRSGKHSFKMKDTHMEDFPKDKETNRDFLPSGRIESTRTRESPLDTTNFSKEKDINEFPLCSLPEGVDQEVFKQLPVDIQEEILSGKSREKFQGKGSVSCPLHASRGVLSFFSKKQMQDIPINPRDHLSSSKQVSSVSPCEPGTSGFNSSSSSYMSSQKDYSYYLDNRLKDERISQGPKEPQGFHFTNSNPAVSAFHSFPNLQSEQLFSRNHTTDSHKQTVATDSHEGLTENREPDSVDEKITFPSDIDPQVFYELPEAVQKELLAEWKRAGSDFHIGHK

These molecules were tested against DNA polymerase iota (Homo sapiens) (UniProt Q9UNA4) (assay: qHTS for Inhibitors of Polymerase Iota). Conditions: Pol iota fluorescent replication assay, 10 min; series mostly up to 115 µM; activity, negative = inhibition: at the top concentration.
Method in brief: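 Fluorescent replication assay read twice, at 0 min and 10 min after adding 50 nM (final) substrate. Enzyme (10 nM) and compounds were first incubated 15 min at room temperature; enzyme-free buffer wells were negative controls.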
Potency is the fitted concentration of half-maximal effect.

Q: For `Cc1ccc(NC(=O)CCC(=O)c2ccc(Cl)s2)nc1`, which Potency is on record?
A: inconclusive: 39.8 µM [inhibitor, partial curve]

Q: With `Cn1nc(C(C)(C)C)cc1C(=O)NCc1ccc(N2CCCC2=O)cc1` as the molecule, how does the Potency read?
A: inconclusive: 39.8 µM [inhibitor, partial curve, poor fit]

Q: Which Potency does the source give for `COc1ccc(C(=O)COC(=O)c2ccc(Cl)nc2)c(OC)c1` here?
A: active: 39.8 µM

Q: How did the “activity, negative = inhibition” value turn out when `CCN(Cc1ccccc1)Cc1c(O)ccc2c(=O)c(-c3ccc(Cl)cc3)coc12` was run?
A: inactive: 7.37%

Q: How did the “activity, negative = inhibition” value turn out when `COc1ccc(/C=N/NC(=O)c2ccn[nH]2)cc1COc1ccc(Cl)cc1Cl` was run?
A: inactive: 3.14%

Q: Which Potency does the source give for `CC(NC(=O)COC(=O)c1ccc([N+](=O)[O-])o1)c1ccccc1` (stereo not drawn) here?
A: inconclusive: 20 µM [inhibitor, partial curve, poor fit]

Q: How did the Potency turn out when `O=C(O)c1sccc1Oc1ccc(NS(=O)(=O)c2ccc(Cl)cc2)cc1` was run?
A: inconclusive: 31.6 µM [inhibitor, single point]

Q: How did the Potency turn out when `O=C(Nc1cc(Cl)cc(Cl)c1)c1coc(=O)c(Br)c1` was run?
A: active: 28.2 µM

Q: How did the Potency turn out when `COc1ccc(S(=O)(=O)N2CN(Cc3ccco3)c3nc4ccccc4nc32)cc1` was run?
A: inconclusive: 15.8 µM [inhibitor, full curve, poor fit]

Q: Which Potency does the source give for `O=C(CN1CCCN(S(=O)(=O)c2ccc(Br)cc2)CC1)Nc1cccc(C(F)(F)F)c1` here?
A: inconclusive: 89.1 µM [inhibitor, single point]

Q: How did the “activity, negative = inhibition” value turn out when `Cc1ccc(NC(=O)c2cnc(SCC(=O)N3CCOCC3)n(C)c2=O)cc1C` was run?
A: inactive: 16.1%

Q: With `N#CC1=C(N)SC(N)=C(C#N)C1c1cccc(O)c1` as the molecule, how does the Potency read?
A: inconclusive: 11.2 µM [inhibitor, partial curve, poor fit]

Q: How did the Potency turn out when `COc1ccc(-n2nnc(-c3nsc(NC(=O)c4ccc(C)c(C)c4)n3)c2C)cc1Cl` was run?
A: inconclusive: 89.1 µM [inhibitor, single point]

Q: How did the Potency turn out when `CC(C)N(C)C1=CC(=O)C(N(C)C(C)C)=CC1=O` was run?
A: active: 44.7 µM

Q: With `Cc1ccc(CN(C(=O)c2csnn2)C(C(=O)NC2CCCC2)c2ccc(C)o2)cc1` (stereo not drawn) as the molecule, how does the Potency read?
A: inconclusive: 20 µM [inhibitor, partial curve, poor fit]

Q: How did the Potency turn out when `S=C1NNC2(CC3CC2C2CCCC32)NN1` (stereo not drawn) was run?
A: inconclusive: 0.631 µM [inhibitor, full curve, poor fit]

Q: With `CCOC(=O)c1c(NC(=O)CSc2nc(C)cc(C)c2C#N)sc(C(C)=O)c1C` as the molecule, how does the Potency read?
A: inconclusive: 79.4 µM [inhibitor, single point]

Q: With `COC(=O)CN1C(=O)CSc2ccc(S(=O)(=O)Nc3ccc(C(C)=O)cc3)cc21` as the molecule, how does the “activity, negative = inhibition” value read?
A: inactive: -6.03%

Q: How did the Potency turn out when `Cc1nc2sc(C(c3ccco3)N3CCC4(CC3)OCCO4)c(O)n2n1` (stereo not drawn) was run?
A: inconclusive: 56.2 µM [inhibitor, single point]

Q: With `CN(C(=O)CSc1nnc(-c2ccc(F)cc2)c2ccccc12)C1CCS(=O)(=O)C1` (stereo not drawn) as the molecule, how does the Potency read?
A: inconclusive: 35.5 µM [inhibitor, partial curve, poor fit]

Q: Which Potency does the source give for `CNS(=O)(=O)c1cccc(C(=O)Nc2cccc(Cl)c2)c1` here?
A: inconclusive: 39.8 µM [inhibitor, single point]

Q: For `Cc1ccc(NC(=O)/C=C/c2cccc([N+](=O)[O-])c2)nc1`, which “activity, negative = inhibition” value is on record?
A: inactive: 95.6%

Q: For `CCOC(=O)c1cnc2c(OC)cccc2c1N1CCN(c2ccc(OC)cc2)CC1`, which Potency is on record?
A: inconclusive: 39.8 µM [inhibitor, single point]

Q: Which “activity, negative = inhibition” value does the source give for `CN(C(=O)CSc1nc(C2CCCC2)nc2c1c(=O)n(C)c(=O)n2C)c1ccccc1` here?
A: inactive: 1.33%

Q: `Cc1ccc(NC(=O)C(=Cc2ccc(C(=O)O)cc2)C(=O)Nc2ccc(C)cc2C)c(C)c1` was tested. Which Potency did it give?
A: active: 12.6 µM

Q: `CCCNC(=O)c1ccc2c(=O)n3c(-c4ccc(C)cc4)csc3nc2c1` was tested. Which Potency did it give?
A: inconclusive: 20 µM [inhibitor, partial curve]

Q: `CN(C)CCNC(=O)c1ccc2c(c1)NC(=O)C(CS(=O)(=O)Cc1cccc(Br)c1)N2` (stereo not drawn) was tested. Which “activity, negative = inhibition” value did it give?
A: inactive: -1.37%

Q: With `CC(C)=C1C2CCC1C(C(=O)NCCc1ccccc1)C2C(=O)O` (stereo not drawn) as the molecule, how does the Potency read?
A: inconclusive: 100 µM [inhibitor, single point]

Q: `CCOC(=O)N1CCN(c2cc(NCCC(=O)O)c3c4c(onc24)-c2ccccc2C3=O)CC1` was tested. Which Potency did it give?
A: inconclusive: 10 µM [inhibitor, full curve, poor fit]

Q: `COc1cccc(-n2c(Cc3cc(=O)[nH]c(=O)[nH]3)nnc2SCC(=O)N2CCCCC2)c1` was tested. Which “activity, negative = inhibition” value did it give?
A: inactive: 28.9%

Q: Which Potency does the source give for `Nc1sc2c(c1C(=O)NC1CCS(=O)(=O)C1)CCCC2` (stereo not drawn) here?
A: inconclusive: 28.2 µM [inhibitor, single point]

Q: With `O=C(NCCCN1CCOCC1)c1cc2c(s1)CCCC2` as the molecule, how does the Potency read?
A: inconclusive: 12.6 µM [inhibitor, full curve, poor fit]

Q: Which Potency does the source give for `CC1CN(C(=O)COc2ncnc3ccccc23)CC(C)O1` (stereo not drawn) here?
A: inconclusive: 7.94 µM [inhibitor, single point]

Q: How did the Potency turn out when `Cc1ccc(C(=O)Oc2coc(CSc3nnc(NC(=O)C4CC4)s3)cc2=O)cc1C` was run?
A: inconclusive: 112 µM [inhibitor, partial curve, poor fit]

Q: With `CN1/C(=C\C=C(C#N)C#N)C(C)(C)c2ccccc21` as the molecule, how does the “activity, negative = inhibition” value read?
A: inactive: -0.099%

Q: Which Potency does the source give for `COCCn1nnnc1C(c1cccc(C(F)(F)F)c1)N1CCOCC1` (stereo not drawn) here?
A: inconclusive: 31.6 µM [inhibitor, single point]

Q: With `CCCc1nnc(NC(=O)CCC(=O)NCc2ccccc2Cl)s1` as the molecule, how does the Potency read?
A: inconclusive: 35.5 µM [inhibitor, partial curve, poor fit]

Q: `CCN1C(=O)[C@H]2[C@H]3CN=C(SC)N3[C@@](Cc3ccccc3)(C(=O)OC)[C@H]2C1=O` was tested. Which Potency did it give?
A: inconclusive: 39.8 µM [inhibitor, single point]

Q: With `COc1ccccc1NC(=O)Nc1nnc(CC(=O)Nc2cccc(C)c2)s1` as the molecule, how does the Potency read?
A: inconclusive: 25.1 µM [inhibitor, partial curve, poor fit]

Q: `NC(=O)CC(NC(=O)Cc1ccc(Br)cc1)c1ccc(NC2CCCC2)c([N+](=O)[O-])c1` (stereo not drawn) was tested. Which “activity, negative = inhibition” value did it give?
A: inactive: -4.27%

Q: For `O=C(NCc1ccon1)C1CCC(=O)N(CCc2ccc(Cl)cc2)C1` (stereo not drawn), which “activity, negative = inhibition” value is on record?
A: inactive: 13.5%

Q: How did the Potency turn out when `NS(=O)(=O)c1ccc(-c2c(-c3ccccc3)sc3ccccc23)cc1` was run?
A: inconclusive: 20 µM [inhibitor, partial curve, poor fit]
